Reference: US20250346883A1, “DENSITY GRADIENT CHEMOSTAT FOR ADAPTED LABORATORY EVOLUTION” (priority 2022, published 2025)
≈ marks a conversion by molar mass, not a printed value.

Tested on: Escherichia coli K-12 substrain MG1655 (ancestor)
Assay: MIC growth test of the ancestor strain in ciprofloxacin
Type: cell-based
Conditions: read-out: observed MIC
Description: Referring still to FIG. 1, the chemostat involves two layers of different media, separated by density. The top layer media (TLM) 110 was formed of LB broth diluted to 50% to reduce nutrient availability. The bottom layer media (BLM) 120 contained fully concentrated LB broth with 100 g/L of sucrose added so that its density caused it to settle below the TLM which contained no sucrose. To the bottom layer, a high concentration of a stressful compound was added. The appropriate concentration of stressor was determined by growing the ancestor strain on a 96-well microplate in increasing concentrations of the stressor for 24-48 hours, depending on the compound. The determined amount of stressor added to the chemostat was above the observed minimum inhibitory concentration (MIC) of the ancestor. This ensured that any observed growth in the chemostat was due to adaptation rather than a preestablished tolerance of the ancestor strain. […]
Dose-response curves were fit to the exponential growth rate and cell proliferation values calculated from OD600 curves for each sample. […] The ED50 values for the ancestor were calculated using growth rates and cell proliferation values from OD600 curves obtained during a test for the ancestor strain's MIC in ciprofloxacin. […]

Compound `O=C(O)c1cn(C2CC2)c2cc(N3CCNCC3)c(F)cc2c1=O` [ciprofloxacin] has an MIC of 0.06 µg/mL (≈ 0.181 µM).
